According to patent US9134318B2, “Detection of oxidized polypeptides” (Purdue Research Foundation, priority 2009, dated 2015):

B1: Kinesin-like motor protein C20orf23 (protein, UniProt Q96L93 1-1317, looked up)
Kinesin-like protein KIF16B: MASVKVAVRVRPMNRREKDLEAKFIIQMEKSKTTITNLKIPEGGTGDSGRERTKTFTYDFSFYSADTKSPDYVSQEMVFKTLGTDVVKSAFEGYNACVFAYGQTGSGKSYTMMGNSGDSGLIPRICEGLFSRINETTRWDEASFRTEVSYLEIYNERVRDLLRRKSSKTFNLRVREHPKEGPYVEDLSKHLVQNYGDVEELMDAGNINRTTAATGMNDVSSRSHAIFTIKFTQAKFDSEMPCETVSKIHLVDLAGSERADATGATGVRLKEGGNINKSLVTLGNVISALADLSQDAANTLAKKKQVFVPYRDSVLTWLLKDSLGGNSKTIMIATISPADVNYGETLSTLRYANRAKNIINKPTINEDANVKLIRELRAEIARLKTLLAQGNQIALLDSPTALSMEEKLQQNEARVQELTKEWTNKWNETQNILKEQTLALRKEGIGVVLDSELPHLIGIDDDLLSTGIILYHLKEGQTYVGRDDASTEQDIVLHGLDLESEHCIFENIGGTVTLIPLSGSQCSVNGVQIVEATHLNQGAVILLGRTNMFRFNHPKEAAKLREKRKSGLLSSFSLSMTDLSKSRENLSAVMLYNPGLEFERQQREELEKLESKRKLIEEMEEKQKSDKAELERMQQEVETQRKETEIVQLQIRKQEESLKRRSFHIENKLKDLLAEKEKFEEERLREQQEIELQKKRQEEETFLRVQEELQRLKELNNNEKAEKFQIFQELDQLQKEKDEQYAKLELEKKRLEEQEKEQVMLVAHLEEQLREKQEMIQLLRRGEVQWVEEEKRDLEGIRESLLRVKEARAGGDEDGEELEKAQLRFFEFKRRQLVKLVNLEKDLVQQKDILKKEVQEEQEILECLKCEHDKESRLLEKHDESVTDVTEVPQDFEKIKPVEYRLQYKERQLQYLLQNHLPTLLEEKQRAFEILDRGPLSLDNTLYQVEKEMEEKEEQLAQYQANANQLQKLQATFEFTANIARQEEKVRKKEKEILESREKQQREALERALARLERRHSALQRHSTLGMEIEEQRQKLASLNSGSREQSGLQASLEAEQEALEKDQERLEYEIQQLKQKIYEVDGVQKDHHGTLEGKVASSSLPVSAEKSHLVPLMDARINAYIEEEVQRRLQDLHRVISEGCSTSADTMKDNEKLHNGTIQRKLKYERMVSRSLGANPDDLKDPIKISIPRYVLCGQGKDAHFEFEVKITVLDETWTVFRRYSRFREMHKTLKLKYAELAALEFPPKKLFGNKDERVIAERRSHLEKYLRDFFSVMLQSATSPLHINKVGLTLSKHTICEFSPFFKKGVFDYSSHGTG
modifications: oxidized
B2: Kininogen-1 precursor (protein, UniProt P01042 1-644, looked up)
chain: MKLITILFLCSRLLLSLTQESQSEEIDCNDKDLFKAVDAALKKYNSQNQSNNQFVLYRITEATKTVGSDTFYSFKYEIKEGDCPVQSGKTWQDCEYKDAAKAATGECTATVGKRSSTKFSVATQTCQITPAEGPVVTAQYDCLGCVHPISTQSPDLEPILRHGIQYFNNNTQHSSLFMLNEVKRAQRQVVAGLNFRITYSIVQTNCSKENFLFLTPDCKSLWNGDTGECTDNAYIDIQLRIASFSQNCDIYPGKDFVQPPTKICVGCPRDIPTNSPELEETLTHTITKLNAENNATFYFKIDNVKKARVQVVAGKKYFIDFVARETTCSKESNEELTESCETKKLGQSLDCNAEVYVVPWEKKIYPTVNCQPLGMISLMKRPPGFSPFRSSRIGEIKEETTVSPPHTSMAPAQDEERDSGKEQGHTRRHDWGHEKQRKHNLGHGHKHERDQGHGHQRGHGLGHGHEQQHGLGHGHKFKLDDDLEHQGGHVLDHGHKHKHGHGHGKHKNKGKKNGKHNGWKTEHLASSSEDSTTPSAQTQEKTEGPTPIPSLAKPGVTVTFSDFQDSDLIATMMPPISPAPIQSDDDWIPDIQIDPNGLSFNPISDFPDTTSPKCPGRPWKSVSEINPTTQMKESYYFDLTDGLS
modifications: full-length oxidized
B3: Laminin subunit gamma-2 precursor (protein, UniProt Q13753 22-1193, looked up)
Laminin subunit gamma-2: TSRREVCDCNGKSRQCIFDRELHRQTGNGFRCLNCNDNTDGIHCEKCKNGFYRHRERDRCLPCNCNSKGSLSARCDNSGRCSCKPGVTGARCDRCLPGFHMLTDAGCTQDQRLLDSKCDCDPAGIAGPCDAGRCVCKPAVTGERCDRCRSGYYNLDGGNPEGCTQCFCYGHSASCRSSAEYSVHKITSTFHQDVDGWKAVQRNGSPAKLQWSQRHQDVFSSAQRLDPVYFVAPAKFLGNQQVSYGQSLSFDYRVDRGGRHPSAHDVILEGAGLRITAPLMPLGKTLPCGLTKTYTFRLNEHPSNNWSPQLSYFEYRRLLRNLTALRIRATYGEYSTGYIDNVTLISARPVSGAPAPWVEQCICPVGYKGQFCQDCASGYKRDSARLGPFGTCIPCNCQGGGACDPDTGDCYSGDENPDIECADCPIGFYNDPHDPRSCKPCPCHNGFSCSVMPETEEVVCNNCPPGVTGARCELCADGYFGDPFGEHGPVRPCQPCQCNNNVDPSASGNCDRLTGRCLKCIHNTAGIYCDQCKAGYFGDPLAPNPADKCRACNCNPMGSEPVGCRSDGTCVCKPGFGGPNCEHGAFSCPACYNQVKIQMDQFMQQLQRMEALISKAQGGDGVVPDTELEGRMQQAEQALQDILRDAQISEGASRSLGLQLAKVRSQENSYQSRLDDLKMTVERVRALGSQYQNRVRDTHRLITQMQLSLAESEASLGNTNIPASDHYVGPNGFKSLAQEATRLAESHVESASNMEQLTRETEDYSKQALSLVRKALHEGVGSGSGSPDGAVVQGLVEKLEKTKSLAQQLTREATQAEIEADRSYQHSLRLLDSVSRLQGVSDQSFQVEEAKRIKQKADSLSSLVTRHMDEFKRTQKNLGNWKEEAQQLLQNGKSGREKSDQLLSRANLAKSRAQEALSMGNATFYEVESILKNLREFDLQVDNRKAEAEEAMKRLSYISQKVSDASDKTQQAERALGSAAADAQRAKNGAGEALEISSEIEQEIGSLNLEANVTADGALAMEKGLASLKSEMREVEGELERKELEFDTNMDAVQMVITEAQKVDTRAKNAGVTIQDTLNTLDGLLHLMDQPLSVDEEGLVLLEQKLSRAKTQINSQLRPMMSELEERARQQRGHLHLLETSIDGILADVKNLENIRDNLPPGCYNTQALEQQ
B4: Leucine-rich repeat-containing protein 49 (protein, UniProt Q8IUZ0 1-686, looked up)
Leucine-rich …: MIPGKYRSVSGRAANNVNCGLHLVIQTSSLPEKNKVEFKLNKDTSSFPGRLLQHDLERNYSSRQGDHINLVSSSLSSFPILQRSSEEKILYSDRLSLERQKLTVCPIINGEDHLRLLNFQHNFITRIQNISNLQKLISLDLYDNQIEEISGLSTLRCLRVLLLGKNRIKKISNLENLKSLDVLDLHGNQITKIENINHLCELRVLNLARNFLSHVDNLNGLDSLTELNLRHNQITFVRDVDNLPCLQHLFLSFNNISSFDSVSCLADSSSLSDITFDGNPIAQESWYKHTVLQNMMQLRQLDMKRITEEERRMASVLAKKEEEKKRESHKQSLLKEKKRLTINNVARQWDLQQQRVANIATNEDRKDSDSPQDPCQIDGSTLSAFPEETGPLDSGLNNALQGLSVIDTYLVEVDGDTLSLYGSGALESLDRNWSVQTAGMITTVSFTFIEFDEIVQVLPKLKIKFPNSLHLKFKETNLVMLQQFNALAQLRRIDQLTIDPQGNPVVNFTLWKYYVLFRLSHFSMQKINGTEVTQNDMIMAERLFGILAHVASSELPQYRLISILGDARKKQFRYLLESKGKKPGIINEENNDSKRLVGENTNRATLNYTTRDFYNEKLEEIKEKKKFCKTYIEDLVKEATEINMKNEALQKLWPQMFIELVRDAVIEIRNKNSYMKLCLQQITDQK
B5: Mannan-binding lectin serine protease 2 precursor (protein, UniProt O00187 16-686, looked up)
Mannan-binding lectin serine …: TPLGPKWPEPVFGRLASPGFPGEYANDQERRWTLTAPPGYRLRLYFTHFDLELSHLCEYDFVKLSSGAKVLATLCGQESTDTERAPGKDTFYSLGSSLDITFRSDYSNEKPFTGFEAFYAAEDIDECQVAPGEAPTCDHHCHNHLGGFYCSCRAGYVLHRNKRTCSALCSGQVFTQRSGELSSPEYPRPYPKLSSCTYSISLEEGFSVILDFVESFDVETHPETLCPYDFLKIQTDREEHGPFCGKTLPHRIETKSNTVTITFVTDESGDHTGWKIHYTSTAQPCPYPMAPPNGHVSPVQAKYILKDSFSIFCETGYELLQGHLPLKSFTAVCQKDGSWDRPMPACSIVDCGPPDDLPSGRVEYITGPGVTTYKAVIQYSCEETFYTMKVNDGKYVCEADGFWTSSKGEKSLPVCEPVCGLSARTTGGRIYGGQKAKPGDFPWQVLILGGTTAAGALLYDNWVLTAAHAVYEQKHDASALDIRMGTLKRLSPHYTQAWSEAVFIHEGYTHDAGFDNDIALIKLNNKVVINSNITPICLPRKEAESFMRTDDIGTASGWGLTQRGFLARNLMYVDIPIVDHQKCTAAYEKPPYPRGSVTANMLCAGLESGGKDSCRGDSGGALVFLDSETERWFVGGIVSWGSMNCGEAGQYGVYTKVINYIPWIENIISDF

Test system: carbonylated plasma proteins
Assay: iTRAQ and MALDI/TOF/TOF quantitative comparison of avidin-selected carbonylated proteins, breast cancer patients vs controls (Table 8)
Parameters: species or system Homo sapiens
Conditions: avidin-selected carbonylated protein in plasma, breast cancer patient vs matched control, iTRAQ; repeated lines of a protein = different donors; negative = lower in cancer

| Molecule | Breast cancer/control (fold change) |
| --- | --- |
| B1 | −2.3 |
| B2 | 1.9 |
| B3 | −11.6 |
| B4 | −2.2 |
| B5 | 9.0 |
